Experimental data reported in doi:10.1101/2025.06.14.659623.
Results are given in words; binding and its absence hold for the method and conditions named. Binding seen in cells or lysates may run through a third protein. Some entries that bind do so weakly or less than the wild type.

Protein sequences, listed by entry. Tags and fused reporters are not part of them. Residues count along the entry.
UniProt Q7Z6E9: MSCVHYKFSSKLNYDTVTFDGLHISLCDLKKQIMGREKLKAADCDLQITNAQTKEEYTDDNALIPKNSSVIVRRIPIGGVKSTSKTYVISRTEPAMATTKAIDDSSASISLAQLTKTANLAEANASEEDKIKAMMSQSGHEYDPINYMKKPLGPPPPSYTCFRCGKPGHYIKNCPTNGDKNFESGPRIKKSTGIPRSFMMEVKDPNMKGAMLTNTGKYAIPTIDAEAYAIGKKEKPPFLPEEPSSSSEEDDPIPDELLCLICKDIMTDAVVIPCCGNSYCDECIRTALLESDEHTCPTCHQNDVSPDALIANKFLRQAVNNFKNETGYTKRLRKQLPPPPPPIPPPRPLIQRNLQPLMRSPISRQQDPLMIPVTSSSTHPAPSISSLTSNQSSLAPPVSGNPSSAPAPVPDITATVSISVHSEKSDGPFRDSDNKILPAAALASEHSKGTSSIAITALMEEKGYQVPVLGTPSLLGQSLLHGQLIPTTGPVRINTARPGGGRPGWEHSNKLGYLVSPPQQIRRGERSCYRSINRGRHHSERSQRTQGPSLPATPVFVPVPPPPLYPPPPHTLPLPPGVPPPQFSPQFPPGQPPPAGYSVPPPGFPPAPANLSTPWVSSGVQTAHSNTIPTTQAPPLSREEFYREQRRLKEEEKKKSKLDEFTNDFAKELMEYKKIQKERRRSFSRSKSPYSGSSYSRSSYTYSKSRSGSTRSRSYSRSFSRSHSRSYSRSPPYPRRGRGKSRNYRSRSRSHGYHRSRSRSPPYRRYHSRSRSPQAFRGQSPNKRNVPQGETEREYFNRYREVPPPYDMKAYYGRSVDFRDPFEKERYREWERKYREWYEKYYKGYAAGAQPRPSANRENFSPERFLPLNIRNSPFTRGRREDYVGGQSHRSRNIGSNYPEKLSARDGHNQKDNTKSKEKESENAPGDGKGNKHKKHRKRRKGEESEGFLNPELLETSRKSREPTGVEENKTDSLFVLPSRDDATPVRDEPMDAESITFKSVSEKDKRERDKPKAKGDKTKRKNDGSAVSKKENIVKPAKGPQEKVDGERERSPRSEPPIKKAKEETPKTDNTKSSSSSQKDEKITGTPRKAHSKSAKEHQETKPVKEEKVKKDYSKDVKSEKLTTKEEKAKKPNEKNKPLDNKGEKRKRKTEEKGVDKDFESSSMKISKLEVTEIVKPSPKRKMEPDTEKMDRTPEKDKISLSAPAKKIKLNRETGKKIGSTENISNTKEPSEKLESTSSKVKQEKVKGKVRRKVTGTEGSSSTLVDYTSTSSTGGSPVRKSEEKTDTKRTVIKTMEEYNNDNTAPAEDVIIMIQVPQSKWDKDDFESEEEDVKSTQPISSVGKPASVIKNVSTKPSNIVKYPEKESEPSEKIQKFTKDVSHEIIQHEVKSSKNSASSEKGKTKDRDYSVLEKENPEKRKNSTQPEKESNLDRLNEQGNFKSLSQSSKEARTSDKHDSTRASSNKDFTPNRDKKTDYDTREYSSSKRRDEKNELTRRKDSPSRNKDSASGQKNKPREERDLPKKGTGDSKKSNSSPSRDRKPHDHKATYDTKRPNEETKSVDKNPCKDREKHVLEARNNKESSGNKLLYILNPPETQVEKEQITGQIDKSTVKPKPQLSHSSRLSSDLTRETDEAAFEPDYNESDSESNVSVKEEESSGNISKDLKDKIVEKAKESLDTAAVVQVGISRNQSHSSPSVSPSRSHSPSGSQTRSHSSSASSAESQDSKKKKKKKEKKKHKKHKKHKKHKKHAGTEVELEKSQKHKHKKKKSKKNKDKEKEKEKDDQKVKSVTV
UniProt Q6DV88, residues 2507-3411: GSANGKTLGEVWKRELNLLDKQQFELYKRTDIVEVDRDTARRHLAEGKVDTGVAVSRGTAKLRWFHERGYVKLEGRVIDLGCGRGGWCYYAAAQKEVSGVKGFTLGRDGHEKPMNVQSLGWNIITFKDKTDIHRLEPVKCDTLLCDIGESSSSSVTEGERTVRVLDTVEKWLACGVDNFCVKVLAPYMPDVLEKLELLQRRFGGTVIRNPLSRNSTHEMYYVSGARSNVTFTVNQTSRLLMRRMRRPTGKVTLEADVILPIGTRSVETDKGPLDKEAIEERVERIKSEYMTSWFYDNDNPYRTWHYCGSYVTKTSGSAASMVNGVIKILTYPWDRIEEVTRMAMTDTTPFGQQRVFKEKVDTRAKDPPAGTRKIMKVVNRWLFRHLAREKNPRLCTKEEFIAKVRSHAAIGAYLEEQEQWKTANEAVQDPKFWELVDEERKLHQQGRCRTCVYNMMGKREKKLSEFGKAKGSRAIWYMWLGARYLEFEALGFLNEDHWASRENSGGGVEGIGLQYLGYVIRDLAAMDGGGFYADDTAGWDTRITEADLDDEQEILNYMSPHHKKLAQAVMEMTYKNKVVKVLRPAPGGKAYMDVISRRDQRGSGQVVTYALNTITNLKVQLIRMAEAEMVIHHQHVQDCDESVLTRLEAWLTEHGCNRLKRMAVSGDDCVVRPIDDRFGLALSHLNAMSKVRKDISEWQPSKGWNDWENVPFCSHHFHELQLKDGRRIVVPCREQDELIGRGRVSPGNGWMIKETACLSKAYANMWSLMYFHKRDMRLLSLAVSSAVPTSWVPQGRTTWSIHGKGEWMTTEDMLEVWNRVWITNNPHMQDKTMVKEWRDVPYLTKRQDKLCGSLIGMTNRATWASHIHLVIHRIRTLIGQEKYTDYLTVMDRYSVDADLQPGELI
UniProt P03314, residues 2507-3411: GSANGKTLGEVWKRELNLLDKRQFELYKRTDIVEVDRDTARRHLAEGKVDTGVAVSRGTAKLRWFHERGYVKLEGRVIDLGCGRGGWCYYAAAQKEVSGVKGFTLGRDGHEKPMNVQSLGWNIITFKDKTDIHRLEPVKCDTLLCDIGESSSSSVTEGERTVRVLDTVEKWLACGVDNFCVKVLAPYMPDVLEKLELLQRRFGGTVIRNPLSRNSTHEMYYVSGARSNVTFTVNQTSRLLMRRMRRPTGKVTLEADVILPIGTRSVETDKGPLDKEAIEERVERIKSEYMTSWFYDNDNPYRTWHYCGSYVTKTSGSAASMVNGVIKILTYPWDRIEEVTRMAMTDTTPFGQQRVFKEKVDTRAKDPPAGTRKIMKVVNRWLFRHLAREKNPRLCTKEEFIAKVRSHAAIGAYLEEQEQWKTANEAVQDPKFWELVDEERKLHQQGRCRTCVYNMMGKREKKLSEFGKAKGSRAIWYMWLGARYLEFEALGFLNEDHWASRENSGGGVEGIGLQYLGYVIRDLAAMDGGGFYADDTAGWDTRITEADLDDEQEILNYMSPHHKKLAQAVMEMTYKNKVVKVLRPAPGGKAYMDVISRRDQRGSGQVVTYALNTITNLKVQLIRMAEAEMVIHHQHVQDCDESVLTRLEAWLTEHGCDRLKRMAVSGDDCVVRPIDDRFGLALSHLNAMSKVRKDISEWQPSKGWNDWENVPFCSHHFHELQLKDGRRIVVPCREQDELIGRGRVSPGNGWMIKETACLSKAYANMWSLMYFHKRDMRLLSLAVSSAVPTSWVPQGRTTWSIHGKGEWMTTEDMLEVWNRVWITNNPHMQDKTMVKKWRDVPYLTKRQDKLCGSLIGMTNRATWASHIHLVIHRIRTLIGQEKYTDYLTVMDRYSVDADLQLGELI

Tests used:
[1] = target: RBBP6 (retinoblastoma binding protein 6), endogenous in Huh7 (human (endogenous in Huh7)) (UniProt Q7Z6E9); experiment: co-IP
[2] = target: YFV-Asibi NS5 with C-terminal 2xStrep II affinity tag (yellow fever virus, strain Asibi) (UniProt Q6DV88); experiment: co-IP

| Substance | binding [1] | binding [2] |
| --- | --- | --- |
| YFV-17D NS5 made in infected cells (from UniProt P03314) (enzyme) | binds | – |
| RBBP6 as detected in the Strep-AP of NS5 truncations (Figure 3H) (from UniProt Q7Z6E9 1-1792) | – | binds |
